Experimental data taken from PubChem BioAssay AID2685 (National Center for Advancing Translational Sciences (NCATS), 2010).
The list shows a part of the results. The main result of the screen is listed elsewhere. These columns were measured beside it and carry no call. Compounds called inactive in the main read-out are mostly missing here. Words in brackets tell the shape of the fitted curve; partial curves, single points and poor fits give uncertain potencies. Where a SMILES comes first, the peptide text is derived from it. [ ]: non-standard residue; d: D form. Inp = O=C(O)C1CCNCC1

Assay: qHTS Assay for Lipid Storage Modulators in Drosophila S3 Cells;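 as to cell number change: cells counted by Cell Tracker Red CMTPX staining in the red channel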
Conditions: BODIPY lipid droplet fluorescence, 18-24 h; for cell number change: measured here: cell count max response, cells fed with added oleic acid
In short: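 Laser-scanning cytometry quantifies lipid droplet accumulation (500–530 nm total intensity; droplet/cell object ratio) in oleic acid-fed (400 uM added) Drosophila S3 cells treated with a concentration series. 20 uM Triacsin C defined 100% inhibition.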

[1] = measured here: lipid fluorescence (Fed channel) AC50, cells fed with added oleic acid
[2] = measured here: cell number channel AC50, cells fed with added oleic acid

Compound	cell number change	AC50 [1]	AC50 [2]
Cc1cc(=O)oc2cc(OCC(=O)c3ccc4c(c3)NC(=O)CO4)ccc12	-9.6%		
COc1ccccc1CN1CCCCC1C(=O)O (stereo not given)		16.4 µM [falling, partial curve]	
CCCn1c(SCC(=O)N2CCN(c3ccccc3)CC2)nc2ccccc2c1=O	222%		5.17 µM [rising, partial curve]
Cc1ccc(Oc2ccc(Cl)cc2NC(=O)c2cnccn2)cc1	75.5%		29.1 µM [rising, single point]
O=C(Nc1nc(-c2ccccc2)cs1)c1cccc(S(=O)(=O)N2CCN(Cc3ccccc3)CC2)c1	264%	0.58 µM [rising, single point]	0.00517 µM [rising, full curve, poor fit]
Cc1ccc(CN2C(=O)C(C)Nc3ncnc(N4CCN(c5ccccn5)CC4)c32)cc1 (stereo not given)	19.7%	32.6 µM [rising, single point]	
CCCN(CC(=O)Nc1ccccc1C)C(=O)c1ccc(-c2ccc([N+](=O)[O-])cc2)o1		32.6 µM [falling, single point]	
O=C(NC(=S)N1CCCCC1c1cccnc1)c1ccc(F)cc1 (stereo not given)	19.3%	0.58 µM [rising, single point]	
Cc1ccc(C)c(N(C)C(=O)c2ccc3c(=O)n4c(nc3c2)CCCCC4)c1		3.66 µM [falling, partial curve]	0.517 µM [falling, full curve, poor fit]
CCC(C)c1ccc(NC(=O)C2=CC=CN3CCS(=O)(=O)N=C23)cc1 (stereo not given)	-3.24%	6.51 µM [rising, single point]	
CCOC(=O)Nc1ccc(S(=O)(=O)NCc2ccccc2)cc1	52.6%		32.6 µM [rising, single point]
Cc1cccc(OCCOC(=O)c2c(-c3ccccc3)noc2C)c1	-5.26%	35.5 µM [falling, single point]	
Cc1ccc(S(=O)(=O)NCC(=O)NC2CCCC2)cc1	54.3%	6.51 µM [falling, single point]	29.1 µM [rising, single point]
CCCCN1CC(C(=O)NCc2ccc(C)cc2)CC1=O (stereo not given)	8.27%	0.146 µM [falling, full curve, poor fit]	
N[C@@H](Cc1ccccc1)C(=O)N1CCC(C(=O)NCC(=O)NCC(=O)O)CC1 (H-F[Inp]GG-OH)	2.7%	0.58 µM [rising, single point]	
CC1CCN(c2c([N+](=O)[O-])nn(-c3ccc4c(c3)OCCO4)[n+]2[O-])CC1	58.7%		9.2 µM [rising, partial curve]
CC(C)(C)OC(=O)N1CCN(c2ccc(NC(=O)c3ccco3)cc2)CC1		3.66 µM [falling, partial curve]	
O=C(c1cccc(S(=O)(=O)N2CCCC2)c1)N1CCN(c2ccccc2)CC1		0.82 µM [falling, full curve, poor fit]	
CCCCCCCCCCn1ccc(=N)cc1	-66.2%		1.46 µM [falling, partial curve]

Of the compounds above, 2 contain a nitro group on carbon:
Compound	cell number change	AC50 [1]	AC50 [2]
CCCN(CC(=O)Nc1ccccc1C)C(=O)c1ccc(-c2ccc([N+](=O)[O-])cc2)o1		32.6 µM [falling, single point]	
CC1CCN(c2c([N+](=O)[O-])nn(-c3ccc4c(c3)OCCO4)[n+]2[O-])CC1	58.7%		9.2 µM [rising, partial curve]

(further entries)

Compound	cell number change	AC50 [1]	AC50 [2]
Cc1cc(O)ccc1NC(=O)c1ccccc1	10.9%		
Cc1cc(C)nc(N2CCN(C(=O)c3ccc(S(=O)(=O)N4CCCCCC4)cc3)CC2)n1			0.58 µM [rising, single point]
CC(C)C(OC(=O)c1ccccc1)c1nccc2ccccc12 (stereo not given)	38.6%	14.6 µM [rising, partial curve, poor fit]	9.2 µM [rising, partial curve]
CCOc1ccc(OCCOc2ccc(/C=C/C(=O)O)cc2OCC)cc1	12.1%	0.116 µM [rising, single point]	
CCN(CC(=O)NCc1cccs1)S(=O)(=O)c1cc(NC(C)=O)ccc1OC	17.7%	32.6 µM [rising, partial curve, poor fit]	
CCC1CCCCN1CCCNC(=O)CN1C(=O)COc2ccc(S(=O)(=O)N3CCOCC3)cc21 (stereo not given)	-30.4%		32.6 µM [falling, single point]
CCOC(=O)c1cc2c(=O)n3ccccc3nc2n(CC2CCCO2)c1=NC(C)=O (stereo not given)	16%	1.46 µM [rising, partial curve]	0.92 µM [rising, partial curve]
O=S(=O)(NCC(c1cccnc1)N1CCN(c2ccccc2)CC1)c1cc(F)ccc1F (stereo not given)		0.366 µM [rising, full curve]	0.461 µM [rising, full curve]
Cc1ccc(C(=O)O/N=C(\N)c2ccccn2)cc1Cl	2.05%		
O=C(NCCc1ccccc1)c1ccc2c(c1)OCO2	7.89%	2.51 µM [rising, full curve, poor fit]	
CCOC(=O)CSc1nnc(-c2ccc(S(=O)(=O)N3CCOCC3)cc2)n1-c1ccccc1	-108%		23.1 µM [falling, single point]
C=C(C)CNC(=S)NNC(=O)c1ccncc1	45.3%	18.4 µM [rising, single point]	29.1 µM [rising, single point]
CC(=O)Nc1ccc(C(=O)N(C)C(C(=O)Nc2ccc(C)cc2)c2ccccn2)cc1 (stereo not given)		14.6 µM [rising, partial curve, poor fit]	
C=CCn1c(SCC(=O)Nc2ncc(Cc3cc(C(F)(F)F)ccc3Cl)s2)nnc1-c1ccncc1	8.06%	32.6 µM [rising, single point]	
O=C(c1ccccc1)n1c(=O)cc[nH]c1=O	31.2%	2.59 µM [rising, partial curve, poor fit]	0.164 µM [rising, full curve, poor fit]
CC1CCCCN1c1ccc(N)cc1C(N)=O (stereo not given)	-49.9%	14.6 µM [falling, partial curve]	20.6 µM [falling, single point]
CN1CCN(c2ccc(NC(=S)NC(=O)c3cccc4c(Cl)cccc34)cc2)CC1	11%	0.411 µM [rising, full curve]	0.731 µM [rising, partial curve]
CN(C)S(=O)(=O)c1ccc(C(=O)NCc2nnc(SCC(=O)c3ccccc3)o2)cc1	-13%	15.8 µM [falling, partial curve, poor fit]	
Cc1cc(C(=O)OCC(=O)NCc2ccc(Cl)cc2)c(C)o1	20.4%		

Compound	cell number change	AC50 [1]	AC50 [2]
COc1ccc(C(=O)NCc2cccs2)cc1S(=O)(=O)N1CCOCC1			1.84 µM [rising, partial curve, poor fit]
COc1ccc(N2CC(NC(=O)c3ccc4ccccc4c3)CC2=O)cc1OC (stereo not given)		1.16 µM [rising, full curve]	4.61 µM [rising, single point]
COc1cc(C2C(C(=O)c3ccc(C)o3)=C(O)C(=O)N2Cc2cccnc2)ccc1O (stereo not given)	4.1%	5.8 µM [falling, single point]	6.51 µM [falling, single point]
COc1ccc(C2=NN(CCC(=O)NC3CCCCCC3)C(=O)CC2)cc1	-14.1%	16.4 µM [rising, single point]	
Cc1cccc(C(=O)N[C@H](C(=O)Nc2nc3ccc(S(C)(=O)=O)cc3s2)C(C)C)c1	4.23%	0.00517 µM [falling, full curve]	
CCOc1ccc2nc(NC(=O)C3CCN(C(=O)c4ccco4)CC3)sc2c1	18.3%		
O=C(c1ccccc1)c1ccc2nc(-c3ccc(NC(=O)c4ccccc4Br)cc3)[nH]c2c1	-55.5%	10.3 µM [falling, partial curve]	13 µM [falling, partial curve]
Cc1cc(=O)[nH]c(N/N=C/c2ccc(-c3ccc([N+](=O)[O-])cc3)o2)n1	-9.52%		1.16 µM [rising, partial curve]
COc1cccc(C(=O)N2CCCC(c3nc(-c4cccs4)no3)C2)c1 (stereo not given)	122%		20.6 µM [rising, single point]
CC(C)(C)c1ccc(S(=O)(=O)N2CCN(C(=O)C3CCC3)CC2)cc1	29.4%	3.26 µM [rising, partial curve]	1.64 µM [rising, full curve, poor fit]
OCCNc1nc(SCc2ccccc2)nc2sc3c(c12)CCC3	4.46%		
CC1(C)CC(=O)C2=C(C1)OC(c1cccs1)C(C#N)=C2N (stereo not given)			0.082 µM [falling, full curve, poor fit]
O=C(CNc1cccc(S(=O)(=O)N2CCCCCC2)c1)Nc1cccc([N+](=O)[O-])c1		1.84 µM [falling, partial curve]	
COc1ccccc1-c1cc(C(F)(F)F)nc(S(C)(=O)=O)n1	-40.5%	18.4 µM [falling, partial curve]	0.517 µM [falling, partial curve]
Cn1cnnc1SCC(=O)Nc1ccc(S(N)(=O)=O)cc1	6.3%	29.1 µM [rising, single point]	
COc1cccc(NC(=S)N2C3CCCC2CC(NC(=O)C2CC2)C3)c1 (stereo not given)	10.8%		
Cc1ccc(-c2nn(Cc3ccccc3)cc2/C=C/C(=O)O)cc1C	109%	29.1 µM [rising, single point]	18.4 µM [rising, single point]
O=C1c2cccc3cccc(c23)N1Cc1ccc(F)cc1	-16.8%		
CC1CCN(S(=O)(=O)c2ccc(NC(=O)Cc3ccccc3)cc2)CC1	-2.48%		2.06 µM [rising, partial curve]
